# Measurements reported in PubChem BioAssay AID504834 (National Center for Advancing Translational Sciences (NCATS), 2011).
# Screen size: about 320,000 compounds; about 22,000 (6.9%) were called active. The shares of active, inactive and inconclusive entries below differ from those in the screen. Calls follow the shape of the dose curve; as a rule, active = well fitted inhibition curve with a large enough effect; inconclusive = small, poorly fitted or top-dose-only effect, or another doubt; inactive = no such curve, though single readings can be large or run the other way. A potency beside an inconclusive call is a rough fit, not a confirmed value.
# Assay: Primary qHTS for delayed death inhibitors of the malarial parasite plastid, 96 hour incubation
# Settings: P. falciparum luciferase reporter growth; series mostly up to 28.7 µM
# Procedure, shortened: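 Readout is luminescence from an integrated firefly luciferase in P. falciparum. Red cells, 2% hematocrit and 0.05% parasitemia final, were cultured with compound through two parasite generations (96 hours) at 37 C, 5% CO2.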
# Potency is read from the fitted curve at half-maximal effect.
row,Compound,Potency
1,O=c1cc(-c2ccco2)nc(SCc2cccc(Cl)c2)[nH]1,"inconclusive: 9.28 µM [inhibitor, partial curve]"
2,COc1cc(CNC2CCCc3ccccc32)cc(OC)c1OC (stereo unspecified),"inconclusive: 1.65 µM [inhibitor, full curve, poor fit]"
3,O=C(CC(c1ccccc1)c1ccccc1O)NCc1ccccc1Cl (stereo unspecified),"inconclusive: 16.5 µM [inhibitor, single point]"
4,Cc1cc(=O)[nH]c(SCc2nc3ncccn3c2Br)n1,"inconclusive: 0.0026 µM [inhibitor, full curve, poor fit]"
5,CN(CC(=O)NCCc1ccc(F)cc1)Cc1ccccc1,"inconclusive: 0.522 µM [inhibitor, partial curve, poor fit]"
6,O=C(CCCN1C(=O)/C(=C\c2cccs2)SC1=S)NNC(=O)c1cccnc1,inactive
7,N#CCCN(C(=O)COC(=O)CCc1c[nH]c2ccccc12)c1ccc(F)cc1,"inconclusive: 2.33 µM [inhibitor, partial curve, poor fit]"
8,Cc1nn(CC(=O)c2ccc(Cl)cc2Cl)c(C)[n+]1N,"inconclusive: 16.5 µM [inhibitor, single point]"
9,CCCOc1cccc(C2C(C(=O)c3cc4ccccc4o3)=C(O)C(=O)N2c2cc(C)on2)c1 (stereo unspecified),active: 3.7 µM
10,O=C(NN=C1CCCCCCC1)c1ccc(F)cc1,inactive
11,CC1C(C)N1CC(O)Cn1ccnc1[N+](=O)[O-] (stereo unspecified),"inconclusive: 10.4 µM [inhibitor, partial curve, poor fit]"
12,COc1ccccc1C(CNC(=O)c1cccc(S(=O)(=O)Nc2ccc(F)cc2)c1)N(C)C (stereo unspecified),active: 8.28 µM
13,Cc1cc(NC(=O)c2cc(-c3ccccc3C)nc3ccccc23)no1,"inconclusive: 18.5 µM [inhibitor, single point]"
14,COc1ccc2nc(C)cc(Nc3ccc(N4CCN(C)CC4)cc3)c2c1,"inconclusive: 0.522 µM [inhibitor, full curve, poor fit]"
15,COc1cc(-c2nc3cnccn3c2Nc2ccc3c(c2)OCCO3)ccc1O,inactive
16,Cn1c(COc2ccccc2)nnc1SCC(=O)Nc1ccc(N2CCOCC2)cc1,inactive
17,O=C(COc1ccc(Br)cc1CO)Nc1ccc(S(=O)(=O)N2CCCC2)cc1,"inconclusive: 13.1 µM [inhibitor, partial curve]"
18,CCn1c(NC(=O)c2ccc(F)cc2)c2ccccc2nc1=O,inactive
19,CC(C)(C)c1ccc(C(=O)c2cn[nH]c2-c2ccccc2O)cc1,"inconclusive: 18.5 µM [inhibitor, single point]"
20,CCCCNC(=O)CCn1c(=O)c2ccccc2n(Cc2ccccc2C)c1=O,"inconclusive: 20.8 µM [inhibitor, partial curve, poor fit]"
21,COc1ccc(C2C(C(=O)Nc3ccc4c(c3)OCCO4)c3ccccc3C(=O)N2C)cc1 (stereo unspecified),"inconclusive: 0.0828 µM [inhibitor, full curve, poor fit]"
22,Cn1c(SCC(=O)Nc2ccccc2[N+](=O)[O-])nnc1C(F)(F)F,"inconclusive: 0.0329 µM [inhibitor, full curve, poor fit]"
23,O=C(CCNS(=O)(=O)c1ccc(Br)cc1)NCC1CCCO1 (stereo unspecified),"inconclusive: 9.28 µM [inhibitor, single point]"

# At a glance, some entries already given:
row,Compound,Potency
11,CC1C(C)N1CC(O)Cn1ccnc1[N+](=O)[O-] (stereo unspecified),"inconclusive: 10.4 µM [inhibitor, partial curve, poor fit]"
12,COc1ccccc1C(CNC(=O)c1cccc(S(=O)(=O)Nc2ccc(F)cc2)c1)N(C)C (stereo unspecified),active: 8.28 µM
13,Cc1cc(NC(=O)c2cc(-c3ccccc3C)nc3ccccc23)no1,"inconclusive: 18.5 µM [inhibitor, single point]"
14,COc1ccc2nc(C)cc(Nc3ccc(N4CCN(C)CC4)cc3)c2c1,"inconclusive: 0.522 µM [inhibitor, full curve, poor fit]"
15,COc1cc(-c2nc3cnccn3c2Nc2ccc3c(c2)OCCO3)ccc1O,inactive
16,Cn1c(COc2ccccc2)nnc1SCC(=O)Nc1ccc(N2CCOCC2)cc1,inactive
17,O=C(COc1ccc(Br)cc1CO)Nc1ccc(S(=O)(=O)N2CCCC2)cc1,"inconclusive: 13.1 µM [inhibitor, partial curve]"
18,CCn1c(NC(=O)c2ccc(F)cc2)c2ccccc2nc1=O,inactive
19,CC(C)(C)c1ccc(C(=O)c2cn[nH]c2-c2ccccc2O)cc1,"inconclusive: 18.5 µM [inhibitor, single point]"
20,CCCCNC(=O)CCn1c(=O)c2ccccc2n(Cc2ccccc2C)c1=O,"inconclusive: 20.8 µM [inhibitor, partial curve, poor fit]"

# (next part)

row,Compound,Potency
1,O=C1CS/C(=N/N=C/c2ccc(OS(=O)(=O)c3ccccc3)cc2)N1,inactive
2,CCCS(=O)(=O)N1CCC(C(=O)NCc2ccco2)CC1,"inconclusive: 0.0928 µM [inhibitor, full curve, poor fit]"
3,COc1ccccc1C1=NC(c2ccccc2)CN1c1ccccc1 (stereo unspecified),inactive
4,COc1ccc(N=Nc2cnc(C)nc2-c2ccccc2)cc1,"inconclusive: 18.5 µM [inhibitor, single point]"
5,CCCCOc1ccccc1N,"inconclusive: 0.0586 µM [inhibitor, full curve]"
6,Nc1nn(-c2ccccc2)nc1C(=O)OCc1ccccc1F,active: 1.04 µM
7,CC(C)S(=O)(=O)c1csc(NC(=O)Nc2ccc(Cl)cc2)c1Cl,active: 1.17 µM
8,CCOc1ccccc1NC(=O)NC1(C(=O)N2CCN3CCCC3C2)CCCCC1 (stereo unspecified),inactive
9,Cc1nc2ccccc2n1CCc1nc2c3ccccc3nc(SCC#N)n2n1,"inconclusive: 14.7 µM [inhibitor, single point]"
10,CN(c1ccccc1)S(=O)(=O)c1ccc(C(=O)N2CCc3ccccc3C2)cc1,"inconclusive: 13.1 µM [inhibitor, single point]"
11,COc1ccc2nc(SCC(=O)N3CCCCCC3)c(C#N)cc2c1,inactive
12,CCN1CCN(c2ccc(S(=O)(=O)N3CCOCC3)cc2NC(=O)c2ccc(Cl)cc2Cl)CC1,"inconclusive: 5.22 µM [inhibitor, partial curve]"
13,CC1Sc2ccc(S(=O)(=O)NCc3ccccc3)cc2NC1=O (stereo unspecified),active: 13.1 µM
14,CC(C)CC(=O)Nc1sc2c(c1C#N)CC(C)(C)NC2(C)C,"inconclusive: 18.5 µM [inhibitor, single point]"
15,CCOC(=O)C1=C(C)N(C)C(=O)NC1c1cc2c(cc1Br)OCO2 (stereo unspecified),"inconclusive: 6.57 µM [inhibitor, partial curve, poor fit]"
16,CC(C)CCn1c(-c2nonc2N)nc2ccccc21,inactive
17,CCCCCC(=O)Nc1cc(S(=O)(=O)N2CCOCC2)ccc1N1CCN(C)CC1,inactive
18,CCc1nnc(NC(=O)CCC(=O)NCc2ccc(OC)cc2)s1,inactive
19,Cc1ccc(C(=O)NCCCNC(=O)c2ccccc2C)cn1,"inconclusive: 3.7 µM [inhibitor, partial curve, poor fit]"
20,CS(=O)(=O)N(CC(=O)N1CCC(C(N)=O)CC1)Cc1ccc(Cl)c(Cl)c1,inactive
21,COc1ccc(N2C(=O)CC(Cc3ccccc3OC)C2=O)cc1 (stereo unspecified),"inconclusive: 10.4 µM [inhibitor, single point]"
22,O=C1/C(=C/c2ccncc2)SC(=S)N1Cc1ccccc1,"inconclusive: 18.5 µM [inhibitor, single point]"
23,CCN(CC)CCOc1ccc(C(O)(Cc2ccc(Cl)cc2)c2ccc(C)cc2)cc1 (stereo unspecified),active: 9.53 µM
